{"sequences": {"note": "Sequences of proteins named here, by UniProt entry; tags and fusion partners are left off. A change or cut given only in a name is not applied to a line headed by its entry.", "UniProt P10599": "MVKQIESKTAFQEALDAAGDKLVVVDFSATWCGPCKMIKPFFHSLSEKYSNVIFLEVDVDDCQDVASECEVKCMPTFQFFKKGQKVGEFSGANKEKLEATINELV", "UniProt Q5T4S7, whole entry, looked up": "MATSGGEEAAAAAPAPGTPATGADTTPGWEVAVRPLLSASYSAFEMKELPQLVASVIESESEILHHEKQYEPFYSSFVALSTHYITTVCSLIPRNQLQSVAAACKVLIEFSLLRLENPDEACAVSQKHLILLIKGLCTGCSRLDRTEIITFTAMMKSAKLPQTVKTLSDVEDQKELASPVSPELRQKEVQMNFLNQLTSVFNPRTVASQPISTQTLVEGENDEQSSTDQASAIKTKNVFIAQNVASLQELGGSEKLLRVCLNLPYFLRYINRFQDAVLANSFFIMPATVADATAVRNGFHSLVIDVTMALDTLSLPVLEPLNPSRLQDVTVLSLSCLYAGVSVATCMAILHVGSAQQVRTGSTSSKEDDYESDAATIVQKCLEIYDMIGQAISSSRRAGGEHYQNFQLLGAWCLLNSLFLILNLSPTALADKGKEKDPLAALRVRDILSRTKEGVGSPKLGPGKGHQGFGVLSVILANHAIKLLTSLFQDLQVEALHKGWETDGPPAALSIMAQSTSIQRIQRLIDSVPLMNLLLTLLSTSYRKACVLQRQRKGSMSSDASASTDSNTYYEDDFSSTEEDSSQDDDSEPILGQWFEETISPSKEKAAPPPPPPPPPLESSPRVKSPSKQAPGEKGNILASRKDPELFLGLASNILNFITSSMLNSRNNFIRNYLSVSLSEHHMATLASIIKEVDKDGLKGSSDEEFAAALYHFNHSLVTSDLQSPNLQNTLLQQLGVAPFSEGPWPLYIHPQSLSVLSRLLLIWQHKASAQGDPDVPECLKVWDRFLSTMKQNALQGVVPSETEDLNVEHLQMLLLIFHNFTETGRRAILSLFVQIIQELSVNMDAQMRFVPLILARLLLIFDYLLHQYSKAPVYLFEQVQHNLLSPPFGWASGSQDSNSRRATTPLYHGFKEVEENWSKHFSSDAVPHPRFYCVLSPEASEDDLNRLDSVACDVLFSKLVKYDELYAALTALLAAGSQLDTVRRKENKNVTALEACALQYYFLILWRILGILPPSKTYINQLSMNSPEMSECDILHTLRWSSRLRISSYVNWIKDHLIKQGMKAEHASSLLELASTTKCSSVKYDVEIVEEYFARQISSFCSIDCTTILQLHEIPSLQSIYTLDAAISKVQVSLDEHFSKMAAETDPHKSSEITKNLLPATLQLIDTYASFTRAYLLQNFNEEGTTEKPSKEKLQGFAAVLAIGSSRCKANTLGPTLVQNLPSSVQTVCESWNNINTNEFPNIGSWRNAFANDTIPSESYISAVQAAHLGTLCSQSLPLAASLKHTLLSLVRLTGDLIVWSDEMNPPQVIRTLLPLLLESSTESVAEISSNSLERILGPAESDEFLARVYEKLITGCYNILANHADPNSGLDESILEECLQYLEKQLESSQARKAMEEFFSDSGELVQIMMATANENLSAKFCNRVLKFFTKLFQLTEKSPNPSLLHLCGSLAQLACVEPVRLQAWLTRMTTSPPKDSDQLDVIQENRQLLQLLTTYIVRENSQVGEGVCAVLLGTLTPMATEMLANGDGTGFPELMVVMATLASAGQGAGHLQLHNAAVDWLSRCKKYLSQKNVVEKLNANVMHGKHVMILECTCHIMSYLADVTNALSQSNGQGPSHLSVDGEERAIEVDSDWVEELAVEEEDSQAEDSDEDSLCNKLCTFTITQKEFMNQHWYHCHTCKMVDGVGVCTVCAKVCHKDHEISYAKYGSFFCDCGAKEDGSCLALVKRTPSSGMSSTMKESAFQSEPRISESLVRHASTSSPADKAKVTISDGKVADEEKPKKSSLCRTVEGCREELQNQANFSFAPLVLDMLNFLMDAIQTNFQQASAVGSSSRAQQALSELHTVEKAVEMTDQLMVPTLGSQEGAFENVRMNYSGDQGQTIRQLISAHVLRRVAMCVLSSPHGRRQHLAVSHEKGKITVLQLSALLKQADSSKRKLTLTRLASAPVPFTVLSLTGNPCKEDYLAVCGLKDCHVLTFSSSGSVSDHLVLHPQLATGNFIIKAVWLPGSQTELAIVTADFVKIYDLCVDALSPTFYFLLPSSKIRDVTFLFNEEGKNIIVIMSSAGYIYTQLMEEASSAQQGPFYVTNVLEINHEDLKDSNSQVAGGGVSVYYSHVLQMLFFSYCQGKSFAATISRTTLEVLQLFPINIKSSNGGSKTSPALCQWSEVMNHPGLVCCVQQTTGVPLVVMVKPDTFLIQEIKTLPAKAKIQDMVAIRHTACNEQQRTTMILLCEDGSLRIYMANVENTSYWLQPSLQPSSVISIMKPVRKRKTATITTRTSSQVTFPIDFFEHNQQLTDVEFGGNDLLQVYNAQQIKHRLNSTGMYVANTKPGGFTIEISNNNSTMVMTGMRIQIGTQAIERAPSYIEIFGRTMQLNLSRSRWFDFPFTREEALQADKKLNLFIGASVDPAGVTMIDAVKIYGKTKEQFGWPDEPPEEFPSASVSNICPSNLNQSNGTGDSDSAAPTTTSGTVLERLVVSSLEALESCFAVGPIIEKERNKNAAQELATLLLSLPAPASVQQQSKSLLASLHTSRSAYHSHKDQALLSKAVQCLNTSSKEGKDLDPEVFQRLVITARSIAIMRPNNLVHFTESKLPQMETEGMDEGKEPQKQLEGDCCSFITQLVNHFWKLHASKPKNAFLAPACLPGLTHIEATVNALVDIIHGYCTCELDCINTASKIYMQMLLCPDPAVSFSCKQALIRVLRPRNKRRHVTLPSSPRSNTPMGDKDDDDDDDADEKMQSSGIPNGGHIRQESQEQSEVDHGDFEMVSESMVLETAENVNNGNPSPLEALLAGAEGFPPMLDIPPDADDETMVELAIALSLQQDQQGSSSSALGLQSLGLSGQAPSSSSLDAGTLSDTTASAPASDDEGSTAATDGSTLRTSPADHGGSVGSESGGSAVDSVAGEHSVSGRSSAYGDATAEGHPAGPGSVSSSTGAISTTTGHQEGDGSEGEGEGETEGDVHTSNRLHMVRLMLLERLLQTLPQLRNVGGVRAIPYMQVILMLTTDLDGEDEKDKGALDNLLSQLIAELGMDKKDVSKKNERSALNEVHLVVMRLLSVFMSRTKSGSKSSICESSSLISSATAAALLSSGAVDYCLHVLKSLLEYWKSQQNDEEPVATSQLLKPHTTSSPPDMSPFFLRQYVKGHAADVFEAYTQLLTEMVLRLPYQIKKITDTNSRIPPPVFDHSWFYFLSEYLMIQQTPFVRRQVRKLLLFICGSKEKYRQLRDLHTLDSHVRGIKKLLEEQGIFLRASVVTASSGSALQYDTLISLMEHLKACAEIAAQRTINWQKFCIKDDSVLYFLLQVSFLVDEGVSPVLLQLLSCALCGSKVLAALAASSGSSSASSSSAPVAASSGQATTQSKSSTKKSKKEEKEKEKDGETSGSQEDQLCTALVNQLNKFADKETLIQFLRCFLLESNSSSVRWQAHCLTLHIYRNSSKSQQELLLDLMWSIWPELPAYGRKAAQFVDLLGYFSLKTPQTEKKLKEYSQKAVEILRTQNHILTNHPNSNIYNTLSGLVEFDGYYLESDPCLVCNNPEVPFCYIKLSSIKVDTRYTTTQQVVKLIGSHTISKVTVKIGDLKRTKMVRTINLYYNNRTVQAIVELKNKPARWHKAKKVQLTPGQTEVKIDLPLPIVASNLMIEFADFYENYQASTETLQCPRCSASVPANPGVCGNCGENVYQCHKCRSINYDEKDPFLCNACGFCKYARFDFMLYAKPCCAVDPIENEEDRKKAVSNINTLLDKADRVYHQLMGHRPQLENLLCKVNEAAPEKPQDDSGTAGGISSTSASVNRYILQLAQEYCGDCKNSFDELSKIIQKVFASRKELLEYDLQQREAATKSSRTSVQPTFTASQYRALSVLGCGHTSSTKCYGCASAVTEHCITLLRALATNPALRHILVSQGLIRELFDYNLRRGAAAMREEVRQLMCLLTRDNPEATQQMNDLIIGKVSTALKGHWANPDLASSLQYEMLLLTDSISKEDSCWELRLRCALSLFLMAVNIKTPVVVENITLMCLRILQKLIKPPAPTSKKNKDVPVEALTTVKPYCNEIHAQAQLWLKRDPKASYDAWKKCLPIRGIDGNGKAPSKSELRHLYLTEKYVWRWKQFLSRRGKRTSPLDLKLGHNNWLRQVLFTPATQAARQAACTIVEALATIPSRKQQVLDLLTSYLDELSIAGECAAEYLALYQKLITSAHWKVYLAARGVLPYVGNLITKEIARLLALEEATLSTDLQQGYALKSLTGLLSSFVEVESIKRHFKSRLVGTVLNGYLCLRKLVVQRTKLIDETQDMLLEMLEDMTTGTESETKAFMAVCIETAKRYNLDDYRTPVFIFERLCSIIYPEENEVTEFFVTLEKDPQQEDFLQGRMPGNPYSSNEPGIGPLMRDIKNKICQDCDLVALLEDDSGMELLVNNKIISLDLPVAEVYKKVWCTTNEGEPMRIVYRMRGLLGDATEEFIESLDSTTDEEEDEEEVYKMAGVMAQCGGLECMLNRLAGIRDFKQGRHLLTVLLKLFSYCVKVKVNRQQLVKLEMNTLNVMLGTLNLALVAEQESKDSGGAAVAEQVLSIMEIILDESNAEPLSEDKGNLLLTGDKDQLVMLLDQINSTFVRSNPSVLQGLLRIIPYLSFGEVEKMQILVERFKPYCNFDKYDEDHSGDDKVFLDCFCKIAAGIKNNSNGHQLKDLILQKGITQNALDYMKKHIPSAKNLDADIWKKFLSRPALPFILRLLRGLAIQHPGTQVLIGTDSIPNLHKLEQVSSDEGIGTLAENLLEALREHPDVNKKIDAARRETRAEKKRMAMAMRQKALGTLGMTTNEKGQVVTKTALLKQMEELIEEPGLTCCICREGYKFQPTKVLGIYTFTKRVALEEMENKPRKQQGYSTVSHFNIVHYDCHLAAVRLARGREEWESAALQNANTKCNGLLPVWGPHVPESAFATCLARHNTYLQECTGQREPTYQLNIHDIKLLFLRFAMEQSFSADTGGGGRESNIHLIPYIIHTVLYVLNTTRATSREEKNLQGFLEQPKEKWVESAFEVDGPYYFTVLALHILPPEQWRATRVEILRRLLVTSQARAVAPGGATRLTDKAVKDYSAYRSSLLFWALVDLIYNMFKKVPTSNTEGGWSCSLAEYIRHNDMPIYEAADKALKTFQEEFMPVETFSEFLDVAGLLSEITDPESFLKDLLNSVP", "UniProt P61086": "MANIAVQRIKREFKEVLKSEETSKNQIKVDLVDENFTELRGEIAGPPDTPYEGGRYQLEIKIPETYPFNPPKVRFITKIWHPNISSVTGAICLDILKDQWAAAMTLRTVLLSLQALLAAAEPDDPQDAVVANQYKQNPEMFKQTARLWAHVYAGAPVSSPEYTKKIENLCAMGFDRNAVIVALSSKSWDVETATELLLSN", "UniProt Q9H832": "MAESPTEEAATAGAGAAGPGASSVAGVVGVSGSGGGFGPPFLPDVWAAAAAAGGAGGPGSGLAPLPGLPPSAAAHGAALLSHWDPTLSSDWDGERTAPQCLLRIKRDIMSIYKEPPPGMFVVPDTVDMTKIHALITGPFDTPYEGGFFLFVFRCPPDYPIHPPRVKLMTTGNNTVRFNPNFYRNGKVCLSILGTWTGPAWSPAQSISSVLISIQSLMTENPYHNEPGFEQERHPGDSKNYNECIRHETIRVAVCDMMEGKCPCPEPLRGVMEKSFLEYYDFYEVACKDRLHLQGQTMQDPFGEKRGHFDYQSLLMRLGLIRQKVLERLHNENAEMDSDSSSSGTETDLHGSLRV", "UniProt Q9UBT2": "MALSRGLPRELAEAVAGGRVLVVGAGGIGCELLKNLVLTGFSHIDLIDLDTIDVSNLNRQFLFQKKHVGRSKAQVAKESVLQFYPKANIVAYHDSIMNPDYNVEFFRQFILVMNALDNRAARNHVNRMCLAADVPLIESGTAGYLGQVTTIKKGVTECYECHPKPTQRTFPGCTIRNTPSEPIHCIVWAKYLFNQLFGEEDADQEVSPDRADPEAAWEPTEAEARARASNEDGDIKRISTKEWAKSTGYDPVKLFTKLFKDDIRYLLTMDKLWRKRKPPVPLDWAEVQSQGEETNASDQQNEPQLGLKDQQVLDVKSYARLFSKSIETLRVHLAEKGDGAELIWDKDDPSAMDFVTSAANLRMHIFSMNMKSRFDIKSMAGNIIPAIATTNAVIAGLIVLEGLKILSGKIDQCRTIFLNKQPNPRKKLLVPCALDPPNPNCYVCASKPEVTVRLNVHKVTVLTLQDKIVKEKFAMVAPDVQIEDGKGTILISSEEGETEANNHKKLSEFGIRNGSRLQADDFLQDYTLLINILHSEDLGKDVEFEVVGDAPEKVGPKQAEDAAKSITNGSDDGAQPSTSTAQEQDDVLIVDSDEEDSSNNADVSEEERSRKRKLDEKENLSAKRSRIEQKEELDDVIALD"}, "source": "the supplement of paper PMC12067093", "about": "“Discovery and optimisation of a covalent ligand for TRIM25 and its application to targeted protein ubiquitination” (Chemical Science, 2025)", "compound": "Cc1cc(ccc1-c1ccccc1)C(=O)N1CCCN(CC1)C(=O)CCl [compound 10]", "assay": "probe-labelled cysteine peptide fold change vs DMSO (competition) (log2 fold change); higher = less target engagement (more negative = stronger competition)", "conditions": "THP-1, incubation time: 4 h", "note": "Some of the results follow.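 Further: competitive profiling in live THP-1 cells: cysteine peptides tagged with an iodoacetamide desthiobiotin (IA-DTB) probe, intensity after compound treatment relative to DMSO-treated cells.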", "data": [{"target": "UBASH3B_Q8TF42_130+135_AHNIFPHITLCQFFMCEDSKVDALGEALQTTVSR (UniProt Q8TF42)", "values": [{"measurement": "probe-labelled cysteine peptide fold change", "setting": "10 µM", "result": -0.171}, {"measurement": "probe-labelled cysteine peptide fold change", "setting": "50 µM", "result": -0.513}]}, {"target": "UBE2T_Q9NPD8_24_ELHMLATEPPPGITCWQDK (UniProt Q9NPD8)", "values": [{"measurement": "probe-labelled cysteine peptide fold change", "setting": "10 µM", "result": -0.209}, {"measurement": "probe-labelled cysteine peptide fold change", "setting": "50 µM", "result": -0.165}]}, {"target": "UBE2F_Q969M7_64_LHCFQLTVTPDEGYYQGGK (UniProt Q969M7)", "values": [{"measurement": "probe-labelled cysteine peptide fold change", "setting": "10 µM", "result": 0.198}, {"measurement": "probe-labelled cysteine peptide fold change", "setting": "50 µM", "result": -0.0621}]}, {"target": "TXN_P10599_32_LVVVDFSATWCGPCK (UniProt P10599)", "values": [{"measurement": "probe-labelled cysteine peptide fold change", "setting": "10 µM", "result": -0.415}, {"measurement": "probe-labelled cysteine peptide fold change", "setting": "50 µM", "result": -0.638}]}, {"target": "UBA5_Q9GZZ9_181_ISNGGLEEGKPVDLVLSCVDNFEAR (UniProt Q9GZZ9)", "values": [{"measurement": "probe-labelled cysteine peptide fold change", "setting": "10 µM", "result": 0.0224}, {"measurement": "probe-labelled cysteine peptide fold change", "setting": "50 µM", "result": -0.168}]}, {"target": "UBR4_Q5T4S7_2688_IYMQMLLCPDPAVSFSCK (UniProt Q5T4S7)", "values": [{"measurement": "probe-labelled cysteine peptide fold change", "setting": "10 µM", "result": -0.082}, {"measurement": "probe-labelled cysteine peptide fold change", "setting": "50 µM", "result": -0.0807}]}, {"target": "UBR4_Q5T4S7_3765_VYHQLMGHRPQLENLLCK (UniProt Q5T4S7)", "values": [{"measurement": "probe-labelled cysteine peptide fold change", "setting": "10 µM", "result": -0.0725}, {"measurement": "probe-labelled cysteine peptide fold change", "setting": "50 µM", "result": -0.0799}]}, {"target": "UBE2K_P61086_170_KIENLCAMGFDR (UniProt P61086)", "values": [{"measurement": "probe-labelled cysteine peptide fold change", "setting": "10 µM", "result": 0.0906}, {"measurement": "probe-labelled cysteine peptide fold change", "setting": "50 µM", "result": -0.102}]}, {"target": "TXNRD2_Q9NNW7_279_GCAPSR (UniProt Q9NNW7)", "values": [{"measurement": "probe-labelled cysteine peptide fold change", "setting": "10 µM", "result": 0.0601}, {"measurement": "probe-labelled cysteine peptide fold change", "setting": "50 µM", "result": 1.36}]}, {"target": "UBE2Z_Q9H832_286_SFLEYYDFYEVACK (UniProt Q9H832)", "values": [{"measurement": "probe-labelled cysteine peptide fold change", "setting": "10 µM", "result": -0.214}, {"measurement": "probe-labelled cysteine peptide fold change", "setting": "50 µM", "result": -0.0615}]}, {"target": "UBR7_Q8N806_101_CDCGNSK (UniProt Q8N806)", "values": [{"measurement": "probe-labelled cysteine peptide fold change", "setting": "10 µM", "result": 0.00343}, {"measurement": "probe-labelled cysteine peptide fold change", "setting": "50 µM", "result": -0.607}]}, {"target": "UBA2_Q9UBT2_185_NTPSEPIHCIVWAK (UniProt Q9UBT2)", "values": [{"measurement": "probe-labelled cysteine peptide fold change", "setting": "10 µM", "result": -0.00257}, {"measurement": "probe-labelled cysteine peptide fold change", "setting": "50 µM", "result": 0.174}]}, {"target": "UBR4_Q5T4S7_3872_CYGCASAVTEHCITLLR (UniProt Q5T4S7)", "values": [{"measurement": "probe-labelled cysteine peptide fold change", "setting": "10 µM", "result": 0.0168}, {"measurement": "probe-labelled cysteine peptide fold change", "setting": "50 µM", "result": 0.3}]}, {"target": "UBE2G1_P62253_90_NGDVCISILHEPGEDK (UniProt P62253)", "values": [{"measurement": "probe-labelled cysteine peptide fold change", "setting": "10 µM", "result": 0.0065}, {"measurement": "probe-labelled cysteine peptide fold change", "setting": "50 µM", "result": 0.131}]}]}
